From patent US12569566B2, “Compositions containing, methods and uses of antibody-TLR agonist conjugates” (Ambrx, Inc., priority 2019, dated 2026)
Structures were worked out from names or drawings and are uncertain.

Sequences of proteins named here, by UniProt entry; tags and fusion partners are left off. Residues count along the entry.
UniProt Q9NYK1, 27-1049 limits assumed: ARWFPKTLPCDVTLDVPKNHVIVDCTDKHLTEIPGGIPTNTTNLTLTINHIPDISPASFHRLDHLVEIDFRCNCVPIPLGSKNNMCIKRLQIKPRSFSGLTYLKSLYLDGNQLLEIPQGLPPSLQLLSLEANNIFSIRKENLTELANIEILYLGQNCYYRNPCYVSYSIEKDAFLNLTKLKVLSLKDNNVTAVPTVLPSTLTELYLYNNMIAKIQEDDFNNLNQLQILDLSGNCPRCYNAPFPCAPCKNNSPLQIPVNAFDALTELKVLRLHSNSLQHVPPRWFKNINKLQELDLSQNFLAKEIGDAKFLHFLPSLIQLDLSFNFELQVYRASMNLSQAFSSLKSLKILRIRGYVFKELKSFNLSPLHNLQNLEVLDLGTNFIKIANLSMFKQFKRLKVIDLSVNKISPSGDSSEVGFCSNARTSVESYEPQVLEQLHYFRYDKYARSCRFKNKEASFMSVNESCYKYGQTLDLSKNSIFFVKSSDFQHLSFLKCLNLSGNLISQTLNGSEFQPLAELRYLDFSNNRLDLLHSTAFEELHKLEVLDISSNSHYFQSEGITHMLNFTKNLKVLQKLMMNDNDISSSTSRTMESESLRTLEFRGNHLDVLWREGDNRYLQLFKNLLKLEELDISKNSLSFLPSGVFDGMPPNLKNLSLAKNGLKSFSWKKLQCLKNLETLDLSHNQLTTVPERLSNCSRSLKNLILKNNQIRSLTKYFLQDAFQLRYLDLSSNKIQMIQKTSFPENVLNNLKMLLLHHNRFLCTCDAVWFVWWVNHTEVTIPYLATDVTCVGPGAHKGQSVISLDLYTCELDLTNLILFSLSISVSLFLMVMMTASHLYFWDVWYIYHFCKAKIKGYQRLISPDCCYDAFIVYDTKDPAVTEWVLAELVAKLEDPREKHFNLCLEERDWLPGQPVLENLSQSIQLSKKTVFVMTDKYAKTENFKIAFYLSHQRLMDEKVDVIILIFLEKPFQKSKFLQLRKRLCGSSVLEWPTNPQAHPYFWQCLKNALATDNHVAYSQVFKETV

Biological target: hTLR7 (Homo sapiens, UniProt Q9NYK1)
Test: HEK-Blue hTLR7 reporter assay (NF-kB-induced SEAP, Quanti-Blue, OD 655 nm)
Conditions: FIG. 4; TLR7 agonists stimulation in HEK-Blue hTLR7 reporter cell line, 24 h

CCCCc1nc2c(N)nc3ccccc3c2n1CCOCCNC(=O)OC(C)(C)C
EC50: 435 nM
